Consider 65 compounds from PubChem BioAssay AID651660 (Broad Institute, 2012).

Protein sequences, listed by entry. Tags and fused reporters are not part of them. Lines headed by an entry give the natural chain unless they say otherwise; changes in a name come on top.
UniProt P43351: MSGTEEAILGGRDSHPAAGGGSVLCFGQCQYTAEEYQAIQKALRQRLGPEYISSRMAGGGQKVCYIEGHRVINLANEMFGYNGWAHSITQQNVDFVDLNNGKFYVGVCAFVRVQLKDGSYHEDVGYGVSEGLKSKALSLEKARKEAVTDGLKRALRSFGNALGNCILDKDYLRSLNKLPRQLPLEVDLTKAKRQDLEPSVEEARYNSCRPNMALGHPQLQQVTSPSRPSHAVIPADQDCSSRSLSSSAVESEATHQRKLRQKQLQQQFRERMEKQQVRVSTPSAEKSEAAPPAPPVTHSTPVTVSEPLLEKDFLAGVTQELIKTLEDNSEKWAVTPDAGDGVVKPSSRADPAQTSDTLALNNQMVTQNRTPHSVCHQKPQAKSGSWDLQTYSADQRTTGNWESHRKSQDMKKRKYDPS

In all, about 1,900 compounds went through this assay and about 15 (0.8%) were called active.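 Rule for the calls: active = every replicate shows at least 50% inhibition; inconclusive = mean inhibition at least 50% but some replicate below; inactive = the rest.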 Some of the results follow.

This experiment concerns the target DNA repair protein RAD52 homolog (Homo sapiens) (UniProt P43351). Description: RAD52 ssDNA annealing inhibitors, primary screen, biochemical, FRET, single point (AID 651660).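 Note: 0% = median of neutral control wells and 100% = median of positive control wells.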 The note with it: Recombinant RAD52 ssDNA annealing, FRET fluorescence, 30 min; at 18.7 µM; stronger effect = higher value.
As usually defined, the inhibition is the change of the read-out against control, counted positive when it falls. Turning to `O=C(/C=C/c1ccccc1)NCC1(c2ccccc2)CCOCC1`, the inhibition is inactive: 1.9%. The value for `CC(=O)OC[C@H]1O[C@@H](Sc2cccc3cccnc23)[C@H](OC(C)=O)[C@@H](OC(C)=O)[C@H]1OC(C)=O` was inactive: -3.92%; that for `Nc1nc2c(ncn2COC(CO)CO)c(=O)[nH]1` was inactive: -6.89%.

As to `CCOc1ccc(N2C(=O)CNC2=S)cc1`, the inhibition was inactive: -8.92%. The value for `CNCCc1ccccn1` was inactive: 0.0195%; that for `CC(C)CC(NC(=O)c1cccc(Cl)c1)C(=O)O` (stereo not given) was inactive: -8.58%.

In the case of `COc1ccccc1NC(=O)Cn1c(C)cc(=O)c2cccc(OC)c21`, the inhibition is inactive: 1.66%.

Take `CC(=O)[C@@]1(O)CC[C@H]2[C@@H]3CCC4=CC(=O)CC[C@]4(C)[C@H]3CC[C@@]21C`: the inhibition is inactive: -7.07%.

`CC(C)CC(=O)N(Cc1ccc(F)cc1)C1CCS(=O)(=O)C1` (stereo not given): the inhibition was inactive: -1.69%. Under `COc1ccc(-c2nc3c(=O)n(C)c(=O)[nH]c3n2CCc2ccccc2)cc1` stands inactive: -5.16%; under `O=C(/C=C/c1ccc(Cl)cc1)NCCc1ccccc1`, inactive: -0.594%; under `CCN(CC)C(=O)c1ccc(O)c(OC)c1`, inactive: -10.5%. Under `CC1(C)CC(NCc2ccccc2)CCO1` (stereo not given) stands inactive: -6.22%; under `O=C1c2ccccc2N2C(=O)c3ccccc3C2N1Cc1ccco1` (stereo not given), inactive: 3.92%; under `CC12CN3CC(C)(CN(C1)C3c1ccc([N+](=O)[O-])o1)C2` (stereo not given), inactive: -2.59%.

As for `CCc1c(C(C)=O)oc2ccc3c(C)cc(=O)oc3c12`, the inhibition was inactive: -11.7%. Regarding `COc1ccc(CCN2C(=O)CSC2c2ccc(OC)c(OC)c2)cc1OC` (stereo not given), the inhibition was inactive: -11.8%. In the case of `Cc1ccc(OCc2nc(-c3cccnc3)no2)cc1C`, the inhibition was inactive: -13%. Under `c1ccc2c3c(c(CN4CCCCC4)cc2c1)COC3` stands inactive: -5.26%; under `Cc1ccc(CSCC(=O)N2CCCC2)cc1`, inactive: 3.83%; under `O=C(OCC1OC2OC3(CCCCC3)OC2C2OC3(CCCCC3)OC12)c1ccccc1` (stereo not given), inactive: -6.56%. Under `Cc1ccc(C2CC(=O)C(C=NCCN3CCN(C(=S)Nc4ccccc4)CC3)=C(O)C2)cc1` (stereo not given) stands inactive: 4.06%; under `CCC(C(=O)Nc1ccc2c(c1)OCCO2)c1ccccc1` (stereo not given), inactive: -13.7%. Consider `O=C(CSCc1ccccc1)NCCCN1CCOCC1`, for which the inhibition was inactive: 7.56%. Under `COc1ccc(C2C(C#N)=C(N)Oc3cc(C)[nH]c(=O)c32)c(OC)c1OC` (stereo not given) stands inactive: -13.8%; under `CCC1(c2ccccc2)C(=O)NCNC1=O`, inactive: -11.8%. The value for `Cc1oc2ccc(OC(=O)c3cccs3)cc2c1C(=O)OC(C)C` was inactive: -2.63%. Regarding `C[C@]12CCC(=O)C=C1CC[C@@H]1[C@@H]2CC[C@@]2(C)[C@H]1CC[C@]2(O)C(=O)CO`, the inhibition is inactive: -1.89%. Under `COc1ccc(C2NCCC3(O)CCCCC23)c(OC)c1OC` (stereo not given) stands inactive: 1.11%; under `CCOc1ccc(NC(=O)N[C@@H](CCSC)C(=O)OC)cc1`, inactive: -5.38%; under `CN(C)CCC(c1ccc(Br)cc1)c1ccccn1` (stereo not given), inactive: 5.86%. With `CC(=O)NC1C(OCc2ccccc2)OC(COC(C)=O)C(OC(C)=O)C1OC(C)=O` (stereo not given), the inhibition is inactive: -4.09%. Consider `c1ccc(-c2ccc(C(c3ccccc3)n3ccnc3)cc2)cc1` (stereo not given), for which the inhibition is inactive: 31.4%. Turning to `CC1=NS(=O)(=O)c2cc(Cl)ccc2N1`, the inhibition is inactive: -3.16%. Under `CC(C)NCC(O)COc1ccc(CC(N)=O)cc1` (stereo not given) stands inactive: 5.13%; under `CCOC(=O)[C@H]1O[C@@H]1C(=O)N[C@@H](CC(C)C)C(=O)NCCC(C)C`, inactive: -8.22%; under `CC[C@H](CO)NCCN[C@H](CC)CO`, inactive: -5.2%.

For the compound `Cc1ccccc1NC(=O)C1(C)Cc2ccccc2C(=O)O1` (stereo not given), the inhibition is inactive: 4.64%. The value for `Cc1cc(-c2nn(-c3ccccc3F)cc2CN2CCC(O)CC2)c(C)s1` was inactive: 10.9%; that for `O=C(O)C1CCN(C(=O)COc2ccc3c4c(c(=O)oc3c2)CCC4)CC1` was inactive: -9.23%; that for `OC(COCc1ccccc1)CN1CCN(Cc2ccc3c(c2)OCO3)CC1` (stereo not given) was inactive: -1.57%. In the case of `O=C(NCC1CCCO1)c1ccc(OC2CCN(C(=O)C3CC3)CC2)cc1` (stereo not given), the inhibition is inactive: -15.9%. In the case of `CC1(C)CC(C(CC(=O)N2CCCC2)Cc2ccccc2)CCO1` (stereo not given), the inhibition was inactive: -12.3%. For `N=c1ccn(CC(=O)NC(N)=O)c2ccccc12`, the inhibition was inactive: 3.93%. Under `COc1ccc(C(CC(=O)N2CCOCC2)C(C)C)cc1` (stereo not given) stands inactive: 4.92%. On to `OC(CCN1CCCCC1)(c1ccccc1)c1ccccc1`, for which the inhibition is inactive: -3.42%.

Turning to `CCOc1ccc2[nH]c3c(=O)n(CCc4ccc(OC)cc4)cnc3c2c1`, the inhibition was inactive: -2.65%. For the compound `COc1c2occc2c(OC)c2c(=O)cc(C(F)(F)C(F)(F)F)oc12`, the inhibition was inactive: -8.16%. Under `COc1ccc2[nH]cc(C3N4CC5(C)CN3CC(C)(C4)C5=O)c2c1` (stereo not given) stands inactive: -5.64%; under `Cc1ccccc1C(=O)NNc1ncnc2c1cnn2C`, inactive: -8.12%; under `CC(=O)N(CCC1(C(C)C)CCOC(C)(C)C1)Cc1ccco1` (stereo not given), inactive: -19%.

For the compound `CC(=O)N=c1sc(S(N)(=O)=O)nn1C`, the inhibition was inactive: -1.8%. Under `CC(C)NNC(=O)c1ccncc1` stands inactive: 4.97%. For `Cc1cc(C)c(NC(=O)NC(=O)C(Cl)(Cl)Cl)c(C)c1`, the inhibition was inactive: -7.37%. Consider `O=C1c2cccc3cccc(c23)C(=O)N1c1ccccn1`, for which the inhibition is inactive: -4.1%. The value for `O=C(O)CCC(=O)c1ccc(-c2ccccc2)cc1` was inactive: -4.45%; that for `CN1CCN2c3ccccc3Cc3ccccc3C2C1` (stereo not given) was inactive: -1.92%.

With `COc1ccc(/C=C/C(=O)c2cc3cccc(OC)c3oc2=O)cc1`, the inhibition is inactive: -32.1%. The value for `CCN(CC)Cc1c[nH]c2c(C(=O)OC)cccc12` was inactive: 1.41%; that for `O=C(O)c1cnccn1` was inactive: -7.16%; that for `Cc1ncoc1C(=O)N1CCCC(C(=O)c2ccc(-c3ccccc3)c(F)c2)C1` (stereo not given) was inactive: -9.52%. The value for `COc1ccc(-c2[nH]ncc2CN(C)C(C)c2ccon2)c(OC)c1` (stereo not given) was inactive: -5.02%; that for `C=CCc1ccc(OCC(O)COc2ccc(CC=C)cc2OC)c(OC)c1` was inactive: 4.32%.

As for `CCSC(=O)CCCCCCCCCCCO`, the inhibition was inactive: 9.6%. As to `CCOC(=O)C1=C(C)NC(C)=C(C(=O)OC)C1c1cccc(Cl)c1Cl` (stereo not given), the inhibition was inactive: 14.9%.
